The supplement of paper PMC3334620
Whole data set: some 33,000 sequences, median “E-score (-0.5 to 0.5)” near -8e-05, cut for the highest 2% near 0.23. Some of the results follow.

Each sequence was assayed against T1, Nrg2 (UniProt P38082) (assay: PBM E-score (8-mer binding enrichment) (E-score (-0.5 to 0.5)); higher = stronger / more preferred TF binding). Conditions: protein concentration: 100 nM; construct: GST-full length.
T1 sequence: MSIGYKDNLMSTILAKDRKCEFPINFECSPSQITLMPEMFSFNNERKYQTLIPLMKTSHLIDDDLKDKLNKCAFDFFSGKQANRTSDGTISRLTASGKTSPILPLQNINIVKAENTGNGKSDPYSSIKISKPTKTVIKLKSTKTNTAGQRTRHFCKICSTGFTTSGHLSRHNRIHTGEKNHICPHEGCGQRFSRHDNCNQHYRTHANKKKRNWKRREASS
Method in brief: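 Full-length yeast transcription factors or their DNA-binding domains, GST-tagged and expressed with PURExpress, were applied at about 100-200 nM to universal all-10-mer Agilent arrays. These arrays had been made double-stranded by primer extension on fresh or once-stripped slides. Detection used fluorescent anti-GST, normalisation used masliner, and E-scores for ungapped eight-base words pooled with reverse complements came from the Universal PBM Analysis Suite.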

Sequence | PBM E-score
CGTGTAAG | 0.0529
TATGACCA | -0.0888
GCTCGTCA | 0.0452
GGCTAACC | -0.235
GAAGAAAC | 0.11
CTAATGTA | -0.0193
ACAGCTAC | -0.00789
AAACTAAA | 0.168
TAACCACA | -0.0254
GTAGGTAA | 0.00715
ATAACGCA | -0.0126
CATCGCTA | 0.0214
TGTAAACA | -0.0786
CCGGAAAG | 0.00592
CGGGAAAG | -0.107
ACGGTCAT | 0.0704
CTTCTGTC | 0.0795
CTCTGACC | -0.127
CGCATTTC | 0.135
ACATGTAC | -0.004
ACCCATGA | -0.0351
GCATACCA | -0.0473
ACCCCCGA | -0.302
TGGATCAA | 0.00272
ACGGATGC | 0.0854
CCAAATCA | 0.0327

Sequence | PBM E-score
CACGGAGC | -0.0377
GGGAACTA | 0.0777
GGACGTAA | -0.0443
GATGAAGA | -0.0527
AGAGTGGC | 0.00048
GGCTCCAA | -0.196
ATCGCATC | 0.152
GAGCCCGC | -0.0724
AGTCTGTA | -0.183
CAGTCGAC | 0.137
ATAGACCC | 0.218
ACGGAACA | 0.0339
CAAGCTTC | -0.12
ACCGGCTG | -0.192
CTTACTGC | 0.0442
GTTATCAA | 0.0558
CATACCCC | -0.0132
GCGACGTA | -0.0386
ACCGCGAA | 0.153
CCAATAAC | 0.0775
GCCCCTCA | -0.0656
GGTCATAC | -0.0955
AACGTGAA | -0.112
CTTATGGA | -0.157
ATCAGCGA | -0.00809
ATGATGGA | 0.0454

Sequence | PBM E-score
ATCGATCG | 0.16
AATAGCTC | -0.0691
CGACACGC | 0.0115
CAGGCTGG | -0.153
CTAATCCC | 0.0443
AAGCACAC | -0.0731
CTATCGGA | -0.00722
ATCCCGGC | 0.00208
AAAGCGCG | 0.0719
AAGTCTGC | -0.306
GCAATATA | 0.125
ATTTCCGA | 0.054
TGTTTCAA | 0.00964
CTAGACCC | -0.028
AACAAAGA | 0.00136
AAACAGCA | 0.0258
CTGTGCGA | 0.0414
CTGGAGTA | 0.0654
CGTGAGTC | -0.178
CGCCCATC | -0.0023
GCTACGGA | -0.247
CAACACGC | -0.0143
AGACTTCG | -0.091
ACCCCCAA | -0.281
ACGCCTAA | -0.0589
AGTTCTGC | 0.0858

Some of the entries so far, comma-delimited:
Sequence,PBM E-score
AAGCACAC,-0.0731
CTATCGGA,-0.00722

(continued)

Sequence | PBM E-score
AAACCTCC | -0.115
ACTAATAA | 0.182
CGCGTACG | 0.0886
ATGGGCTC | 0.0622
ACTCCGAT | -0.0257
CGATCTAG | -0.0397
AGACCTTG | -0.0794
GAGTCAAA | -0.198
AGCTAAGA | 0.0244
ACTGTTGC | 0.0652
GCCGACCC | -0.145
ACGTCATC | -0.0886
CATTCTCG | -0.00943
CCATGGGC | -0.00676
CACATAAA | 0.0485
ATTGATAC | 0.274
CAACACTC | 0.115
GGTGTGAC | -0.218
GCCGTGTA | -0.0106
TAGTCAGA | -0.159
CGCCCATA | 0.0857
GTCGAGAC | 0.112
TTGCCCAA | -0.116
CGTCGTAG | -0.0873
CGAGCGAA | 0.0827
CTGAACTA | -0.0495

Part of the list above, set out differently.
Sequence	PBM E-score
CTTATGGA	-0.157
ATCAGCGA	-0.00809
ATGATGGA	0.0454
ATCGATCG	0.16
AATAGCTC	-0.0691
CGACACGC	0.0115
CAGGCTGG	-0.153
CTAATCCC	0.0443
AAGCACAC	-0.0731
CTATCGGA	-0.00722
ATCCCGGC	0.00208
AAAGCGCG	0.0719
AAGTCTGC	-0.306
GCAATATA	0.125
ATTTCCGA	0.054
TGTTTCAA	0.00964
CTAGACCC	-0.028
AACAAAGA	0.00136
AAACAGCA	0.0258
CTGTGCGA	0.0414
CTGGAGTA	0.0654
CGTGAGTC	-0.178
CGCCCATC	-0.0023
GCTACGGA	-0.247
CAACACGC	-0.0143
AGACTTCG	-0.091
ACCCCCAA	-0.281
ACGCCTAA	-0.0589
AGTTCTGC	0.0858
AAACCTCC	-0.115
ACTAATAA	0.182
CGCGTACG	0.0886
ATGGGCTC	0.0622
ACTCCGAT	-0.0257
CGATCTAG	-0.0397

Later entries

Sequence | PBM E-score
AGTCCGTG | -0.0911
CCTTGACC | -0.0242
GGCGAGAA | 0.16
GAGGGTCC | 0.282
AACTCATG | 0.0897
CGTATGTA | -0.034
TACTCACA | 0.0727
ACGGCACG | -0.23
AATTGCAG | 0.11
ACCCAGCC | -0.261
CATGATCC | -0.125
GCGCCGAA | 0.0375
TAGTTAAA | 0.123
GGCGGTCA | -0.163
AAAGCCGA | -0.182
CCTACCTA | -0.193
CCGTGGGA | -0.176
CAGAGCCC | -0.0162
TGAATTCA | 0.167
AGATGTTA | -0.147
GGACATCA | 0.0631
AAAAAGTT | -0.0781
AGATATGA | 0.218
AAACGCCT | -0.314
CAGATACG | -0.0437
